The target in assay [1] is T1, hinge region of human CEP55 (CEP) (human) (UniProt Q53EZ4).
T1 sequence (looked up): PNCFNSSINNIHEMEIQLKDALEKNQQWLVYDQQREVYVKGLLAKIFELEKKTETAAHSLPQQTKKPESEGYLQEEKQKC
The assay is described as follows: mammalian two-hybrid in HEK293T cells (mCherry / Renilla luciferase).

Protein sequences, listed by entry. Tags and fused reporters are not part of them. Residues count along the entry.
UniProt Q8WUM4, residues 771-830: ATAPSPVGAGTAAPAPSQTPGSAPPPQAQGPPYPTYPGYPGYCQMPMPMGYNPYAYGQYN
UniProt Q99816, residues 131-190: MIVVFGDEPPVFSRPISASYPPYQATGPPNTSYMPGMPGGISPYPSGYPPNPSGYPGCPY

The target in assay [2] is T2, MYC-CEP55 (full-length mouse CEP55 with N-terminal MYC tag) (mouse) (UniProt Q8BT07).
T2 sequence (looked up): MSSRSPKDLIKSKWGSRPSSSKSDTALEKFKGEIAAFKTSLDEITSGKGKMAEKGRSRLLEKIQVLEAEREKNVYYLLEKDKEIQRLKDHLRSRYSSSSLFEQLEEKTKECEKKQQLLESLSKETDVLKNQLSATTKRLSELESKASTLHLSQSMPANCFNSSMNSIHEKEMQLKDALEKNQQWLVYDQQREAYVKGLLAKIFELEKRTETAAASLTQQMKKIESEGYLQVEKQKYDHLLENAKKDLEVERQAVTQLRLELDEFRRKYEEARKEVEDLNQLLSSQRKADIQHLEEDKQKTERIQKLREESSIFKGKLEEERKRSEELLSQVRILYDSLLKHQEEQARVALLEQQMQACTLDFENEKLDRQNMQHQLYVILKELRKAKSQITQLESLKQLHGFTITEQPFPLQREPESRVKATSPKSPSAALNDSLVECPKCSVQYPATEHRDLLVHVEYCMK
The assay is described as follows: co-immunoprecipitation from HEK293T cells, both directions, Western blot. A general note: A western blot detects proteins with antibodies after separation by electrophoresis.

Another assay has as its target T3, full-length mouse CEP55 (mouse, UniProt Q8BT07 1-462).
T3 construct: whole, on cells; Yeast two-hybrid fusion with a GAL4 domain (pGBKT7 or pGADT7)
T3 sequence (looked up): T2 sequence (looked up)
The assay is described as follows: yeast two-hybrid. The protocol: Protein-protein interactions were evaluated by using the Matchmaker Two-Hybrid System 3 (Clontech) as described previously (10). Mouse full-length TEX14 and MLKP1 were previously subcloned into the Matchmaker GAL4 two-hybrid pGBKT7 and pGADT7 vectors (10). The constructs of full-length mouse and human CEP55, human TEX14, truncated mouse CEP55-C1, and truncated mouse TEX14-T1, T2, T1[…]T2, T3, T4, and T4-C were made by using the Matchmaker GAL4 two-hybrid pGBKT7 bait vector and pGADT7 prey vectors. Some Y2H interactions were examined with an oxygen biosensor assay (Clontech PT3584-1) that measured the fluorescence emitted by an oxygen-sensing platform that detects GAL4.
To determine the relevance of this GPPX3Y motif as it relates to the interaction of TEX14 with CEP55, we performed yeast two-hybrid assays with mouse TEX14 amino acids 756 to 815 that contain the GPPX3Y motif (FIG. 3A). These 60 amino acids interacted with full-length CEP55 (FIGS. 3B and C). Conversely, an 80-amino-acid fragment of CEP55 (C1) that contains the hinge region interacted with full-length TEX14, the C terminus (T3), and GPPX3Y-containing fragment (T4) but not a shorter sequence that lacked the GPPX3Y motif (T4-C) (FIG. 3A to C). Thus, similar GPPX3Y-containing regions of TEX14, ALIX, and TSG101 interact with the hinge region of CEP55.

Results are given in words; binding and its absence hold for the method and conditions named. For some of these results: In cells and extracts the contact can be indirect. Some binding calls cover weakened binding; strength is not graded here. For some of these results: Tags and fused reporters may be left off the sequences shown.

As for “region including the GPPX3Y motif of human ALIX (ALIX) (from UniProt Q8WUM4 771-830)”, in assay [1], the binding entry is “binds”. The same measure, in the same setting: under “region including the GPPX3Y motif of human TSG101 (TSG) (from UniProt Q99816 131-190)” stands “binds”.

B1: full-length mouse TEX14 (other, UniProt Q7M6U3 1-1450, looked up)
chain: MSRGAPFPVPCPVLLGTFTDDSLEAQLHEYAKQGNCVKLKKILKKGVCVDAVNTQGQSALFVAALLGHVKLVDVLVDYGSDPNHRCFDGSTPVHAAAFSGNQWILSKLLTAGGDLRLHDEKGRNPQAWALTAGKDRSTQMVEFMQRCTSHMKAIIQGFSYDLLKKIDSPQRLIGSPPWFGSLIQGSPNSSPNRQLKPGIISAQNIYSFGFGKFYLTSGMQLTYPGSLPVIGEKEVVQADDEPTFSFFSGPYMVMTNLVWNRSRVTVKELNLPTRPHCSRLRLADLLIAEQEHSSNLRHPNLLQLMAVCLSRDLEKIRLVYERITVGTLFSVLHERRSQFPVLHMEVIVHLLLQVADALIYLHSRGFIHRSLSSYAVHIVSAGEARLTNLEYLTESQDSGAHRNVTRMPLPTQLYNWAAPEVVLQKAATVKSDIYSFSVIIQEILTDSIPWNGLDGSLVKETIALGNYLEADVRLPEPYYDIVKSGIHAKQKNRTMNLQDIRYILKNDLKEFIGAQKTQPTESPRGQSYEPHPDVNICLGLTSEYQKDPPDLDIKELKEMGSQPHSPTDHSFLTVKPTLAPQTLDSSLSAQKPDNANVPSPPAACLAEEVRSPTASQDSLCSFEINEIYSGCLTLGTDKEEECLGTAASPEGDRPNQGDELPSLEEELDKMERELHCFCEEDKSISEVDTDLLFEDDDWQSDSLGSLNLPEPTREAKGKTSSWSKTDEYVSKCVLNLKISQVMMQQSAEWLRKLEQEVEELEWAQKELDSQCSSLRDASLKFANAKFQPAVGPPSLAYLPPVMQLPGLKQPENGGTWLTLARSPGNEREFQEGHFSKKPEKLSACGWKPFTQVSEESRGDCSELNNQLPTLRGPGKQSTGEQLPSTQEARESLEKNTNQNSRSMASVSSEIYATKSRNNEDNGEAHLKWRLAVKEMAEKAVSGQLLLPPWNPQSSAPFESKVENESTPLPRPPIRGPESTEWQHILEYQRENDEPKGNTKFGKMDNSDCDKNKHSRWTGLQRFTGIRYPFFRNHEQPEQNEASQASCDTSVGTEKFYSTSSPIGDDFERFQDSFAQRQGYVEENFQIREIFEKNAEILTKPQFQAIQCAEDKQDETLGETPKELKEKNTSLTDIQDLSSITYDQDGYFKETSYKTPKLKHAPTSASTPLSPESISSAASHYEDCLENTTFHVKRGSTFCWNGQEAMRTLSAKFTTVRERAKSLESLLASSKSLPAKLTDSKRLCMLSETGSSNVSAAFVTSTHATKRKSLPRELAEATSQQHLDELPPPAQELLDEIEQLKQQQVSSLASHENTARDLSVTNKDKKHLEEQETNSSKDSSFLSSREIQDLEDTERAHSSLDEDLERFLQSPEENTALLDPTKGSTREKKNKDQDVVEQKRKKKESIKPERRESDSSLGTLEEDELKPCFWKRLGWSEPSRIIVLDQSDLSD
notes: whole, on cells; In the yeast two-hybrid assay it stood as a fusion with a GAL4 domain (pGBKT7 bait or pGADT7 prey vector)
For the molecule B1, the binding entry in assay [2] is given as “binds”.

B2: long C-terminal domain of mouse TEX14 (T3) (protein, UniProt Q7M6U3 513-1450, looked up)
chain: GAQKTQPTESPRGQSYEPHPDVNICLGLTSEYQKDPPDLDIKELKEMGSQPHSPTDHSFLTVKPTLAPQTLDSSLSAQKPDNANVPSPPAACLAEEVRSPTASQDSLCSFEINEIYSGCLTLGTDKEEECLGTAASPEGDRPNQGDELPSLEEELDKMERELHCFCEEDKSISEVDTDLLFEDDDWQSDSLGSLNLPEPTREAKGKTSSWSKTDEYVSKCVLNLKISQVMMQQSAEWLRKLEQEVEELEWAQKELDSQCSSLRDASLKFANAKFQPAVGPPSLAYLPPVMQLPGLKQPENGGTWLTLARSPGNEREFQEGHFSKKPEKLSACGWKPFTQVSEESRGDCSELNNQLPTLRGPGKQSTGEQLPSTQEARESLEKNTNQNSRSMASVSSEIYATKSRNNEDNGEAHLKWRLAVKEMAEKAVSGQLLLPPWNPQSSAPFESKVENESTPLPRPPIRGPESTEWQHILEYQRENDEPKGNTKFGKMDNSDCDKNKHSRWTGLQRFTGIRYPFFRNHEQPEQNEASQASCDTSVGTEKFYSTSSPIGDDFERFQDSFAQRQGYVEENFQIREIFEKNAEILTKPQFQAIQCAEDKQDETLGETPKELKEKNTSLTDIQDLSSITYDQDGYFKETSYKTPKLKHAPTSASTPLSPESISSAASHYEDCLENTTFHVKRGSTFCWNGQEAMRTLSAKFTTVRERAKSLESLLASSKSLPAKLTDSKRLCMLSETGSSNVSAAFVTSTHATKRKSLPRELAEATSQQHLDELPPPAQELLDEIEQLKQQQVSSLASHENTARDLSVTNKDKKHLEEQETNSSKDSSFLSSREIQDLEDTERAHSSLDEDLERFLQSPEENTALLDPTKGSTREKKNKDQDVVEQKRKKKESIKPERRESDSSLGTLEEDELKPCFWKRLGWSEPSRIIVLDQSDLSD
Regarding B2, the binding result with full-length mouse CEP55 is “binds”.
